Reference: PubChem BioAssay AID1347074 (Center for Chemical Genomics, University of Michigan, 2019)
This is a selection; strong and weak results do not stand in their true shares. Active and inactive are the calls of the source. Cut-off read from the data, not from the text of the source: active = z-score above about 3 (passing the limit was not always enough); inactive = the rest.

Chains of the proteins cited; added tags and fusions are not shown. Lines headed by an entry give the natural chain unless they say otherwise; changes in a name come on top.
UniProt Q9UPY3: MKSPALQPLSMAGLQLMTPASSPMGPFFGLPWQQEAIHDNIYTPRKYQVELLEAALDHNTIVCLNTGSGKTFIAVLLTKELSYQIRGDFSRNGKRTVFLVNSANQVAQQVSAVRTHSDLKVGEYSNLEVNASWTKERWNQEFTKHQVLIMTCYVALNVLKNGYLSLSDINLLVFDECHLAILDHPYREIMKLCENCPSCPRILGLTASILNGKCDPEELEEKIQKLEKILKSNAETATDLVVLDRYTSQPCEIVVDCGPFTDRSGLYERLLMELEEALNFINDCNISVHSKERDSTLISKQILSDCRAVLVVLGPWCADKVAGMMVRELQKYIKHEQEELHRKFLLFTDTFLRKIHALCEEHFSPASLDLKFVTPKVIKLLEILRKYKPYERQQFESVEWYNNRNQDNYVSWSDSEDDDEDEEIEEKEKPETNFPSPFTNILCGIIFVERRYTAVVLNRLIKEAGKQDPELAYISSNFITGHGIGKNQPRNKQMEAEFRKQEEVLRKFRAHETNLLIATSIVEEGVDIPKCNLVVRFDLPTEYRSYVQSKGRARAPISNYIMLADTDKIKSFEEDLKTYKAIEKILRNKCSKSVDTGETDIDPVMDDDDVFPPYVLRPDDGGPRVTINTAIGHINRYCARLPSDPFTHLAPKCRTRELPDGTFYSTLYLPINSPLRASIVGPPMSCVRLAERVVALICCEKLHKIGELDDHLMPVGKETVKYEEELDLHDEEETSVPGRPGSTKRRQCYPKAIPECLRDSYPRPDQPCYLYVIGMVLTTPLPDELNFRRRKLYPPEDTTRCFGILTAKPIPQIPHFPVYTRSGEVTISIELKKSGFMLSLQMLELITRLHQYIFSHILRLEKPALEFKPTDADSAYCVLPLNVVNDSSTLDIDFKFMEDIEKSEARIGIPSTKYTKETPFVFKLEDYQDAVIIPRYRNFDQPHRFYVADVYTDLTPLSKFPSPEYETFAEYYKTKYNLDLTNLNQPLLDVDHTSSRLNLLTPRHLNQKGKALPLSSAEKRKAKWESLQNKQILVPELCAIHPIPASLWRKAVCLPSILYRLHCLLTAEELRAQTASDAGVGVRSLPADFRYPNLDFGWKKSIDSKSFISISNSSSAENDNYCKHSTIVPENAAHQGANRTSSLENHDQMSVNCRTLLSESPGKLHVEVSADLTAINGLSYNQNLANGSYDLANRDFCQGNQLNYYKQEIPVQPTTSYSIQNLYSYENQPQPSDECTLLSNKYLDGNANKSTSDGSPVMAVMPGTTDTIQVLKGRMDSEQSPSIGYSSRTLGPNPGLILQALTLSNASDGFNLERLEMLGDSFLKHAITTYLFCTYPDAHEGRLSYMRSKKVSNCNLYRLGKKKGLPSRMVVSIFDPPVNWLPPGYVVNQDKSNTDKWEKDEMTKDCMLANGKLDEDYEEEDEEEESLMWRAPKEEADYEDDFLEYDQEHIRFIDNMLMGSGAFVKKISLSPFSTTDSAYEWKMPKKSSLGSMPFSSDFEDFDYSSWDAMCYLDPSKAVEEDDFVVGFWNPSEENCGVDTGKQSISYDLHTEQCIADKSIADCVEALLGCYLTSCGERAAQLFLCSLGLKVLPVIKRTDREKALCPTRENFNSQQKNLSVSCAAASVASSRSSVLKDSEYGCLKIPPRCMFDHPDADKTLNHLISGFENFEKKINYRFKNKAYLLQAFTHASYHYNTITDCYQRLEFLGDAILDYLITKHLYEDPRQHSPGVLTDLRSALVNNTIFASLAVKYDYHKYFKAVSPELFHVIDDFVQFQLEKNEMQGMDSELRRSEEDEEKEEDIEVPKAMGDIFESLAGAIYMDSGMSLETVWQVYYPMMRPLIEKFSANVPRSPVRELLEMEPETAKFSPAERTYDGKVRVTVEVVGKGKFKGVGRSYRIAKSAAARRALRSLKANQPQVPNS

Target: Endoribonuclease Dicer (Homo sapiens) (UniProt Q9UPY3)
Test: Dicer cleavage of pre-miR-21 blockers – biochemical, cat-ELCCA, chemiluminescence, primary screen (AID 1347074);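 note: plate controls were vehicle for no effect and no enzyme for full effect; higher signal means more uncleaved substrate so more Dicer inhibition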
Details: cat-ELCCA pre-miR-21 Dicer processing, at 25 µM, stronger effect = higher value

Structure (SMILES)	z-score
O=C1NC(=O)c2c1c(-c1ccccc1)cc1[nH]c3ccc(O)cc3c21	active: 9.76
